We go through 58 compounds from PubChem BioAssay AID2685 (National Center for Advancing Translational Sciences (NCATS), 2010).

In general, AC50 refers to the midpoint of the concentration-response curve, whichever way the signal moves. A lower AC50 goes with activity at low concentration.

Structures are written as SMILES. Some of the results follow. The main result of the screen is listed elsewhere. These columns were measured beside it and carry no call. Most of these compounds were active or inconclusive in the main read-out, so they are no random draw. Potencies come from curve fits of mixed quality, noted in brackets.

A short description of the assay: qHTS Assay for Lipid Storage Modulators in Drosophila S3 Cells.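 As to cell number change: cells counted by Cell Tracker Red CMTPX staining in the red channel.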 The following applies: BODIPY lipid droplet fluorescence, 18-24 h; for cell number change: measured here: cell count max response, cells fed with added oleic acid. The gist of the method: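 Drosophila S3 cells got compounds at several concentrations plus oleic acid (400 uM solution). Laser-scanning cytometry with 488 nm excitation read lipid droplets at 500-530 nm and cells at 575-640 nm. Percent activity was relative to 20 uM Triacsin C.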
(In general: In qHTS, concentration-response curves come from the screen itself.)

Setting [1] is: measured here: cell number channel AC50, cells fed with added oleic acid.
Where [2] appears, read: measured here: lipid fluorescence (Fed channel) AC50, cells fed with added oleic acid.

Turning to `COCCN(CCOC)C(=O)CN1C(=O)NC(Cc2c[nH]c3ccccc23)C1=O` (stereo not drawn), the AC50 under setting [1] was 6.51 µM [rising, partial curve, poor fit].
For `COc1cc(Br)cc(/C=N/NC(=O)Cc2ccc(C(F)(F)F)cc2[N+](=O)[O-])c1O`, the cell number change is -6.3%. Under setting [2], the AC50 was 23.1 µM [falling, single point].
As to `COc1cc(NC(=O)c2cccs2)c(OC)cc1NC(=O)Nc1ccc(F)cc1`, the cell number change was -20.7%.
As to `O=C(NCCCNC(=O)c1ccco1)c1ccc(F)cc1`, the cell number change was -6.25%. Further, under setting [2], the AC50 is 0.291 µM [falling, partial curve].
In the case of `CCCOc1ccc(CNC(=O)Cn2c(=O)oc3ccccc32)cc1`, the cell number change is -15.2%.
With `NC(=O)NC(=O)COC(=O)c1ccc2noc(-c3ccccc3)c2c1`, the cell number change turned out to be 105%. For the same compound, the AC50 under setting [1] is 23.1 µM [rising, partial curve, poor fit].
With `O=C(O)CSc1ccccc1C(=O)O`, the cell number change was -104%. For the same compound, under setting [1], the AC50 was 14.6 µM [falling, partial curve, poor fit]. In addition, under setting [2], the AC50 was 0.13 µM [falling, full curve, poor fit].
For `O=C(NCC(=O)N1CCCC1)c1ccc(Br)cc1`, the cell number change amounted to 4.76%.
For the compound `NC(=O)CC(NC(=O)Cc1cccc2ccccc12)c1ccc(N2CCC(N3CCCC3)CC2)c([N+](=O)[O-])c1` (stereo not drawn), the cell number change was -11.1%.
On to `Cn1cc(CN2CCCCC2c2ccccn2)c(-c2ccc3c(c2)OCCO3)n1` (stereo not drawn), for which the cell number change came to 24.3%.
As for `Cc1ccccc1-n1ncc2c1CC(C)(C)CC2NC(=O)c1ccncc1` (stereo not drawn), the cell number change amounted to 17%. The AC50 under setting [2] is 20.6 µM [rising, single point].
`CCOC(=O)N1CCC(N2C(=O)c3ccccc3C2Nc2c(C)cccc2C)CC1` (stereo not drawn): the cell number change was -5.28%. Also, under setting [2], the AC50 was 2.31 µM [rising, single point].
On to `COC(=O)c1ccc(CNC(=O)c2ccc(OCC(=O)N3CCOCC3)c(OC)c2)cc1`, for which the cell number change was found to be 7.38%.
For `CCCCC(C(=O)NC1CCCC1)N(C(=O)c1snc(C(N)=O)c1N)c1ccc(OCC)cc1` (stereo not drawn), the cell number change was -14.7%.
For the compound `COc1cc(NC(=O)Cn2cnc(S(=O)(=O)N3CCCCC3)c2)cc(OC)c1OC`, the cell number change was determined as 15%. Further, the AC50 under setting [2] is 29.1 µM [rising, single point].
For `O=C1CC(O)(C(F)F)Oc2ccc3ccccc3c21` (stereo not drawn), the cell number change is 46.1%. Besides, under setting [1], the AC50 was 13 µM [rising, partial curve, poor fit]. Also, the concentration at half-maximal activity (AC50) under setting [2] is 7.31 µM [rising, partial curve].
Regarding `COc1cc(C(=O)NNC(=O)C2CCCC2)cc(OC)c1OC`, the cell number change was found to be 11.5%.
Regarding `COc1cccc(CNC(=O)COC(=O)/C(C#N)=C/c2ccc(N(C)C)cc2)c1`, the cell number change is -19.4%. Also, the AC50 under setting [1] is 3.66 µM [falling, partial curve, poor fit].
Consider `CSC1=NSC2=NC(=O)/C(=C/c3coc4ccccc4c3=O)C(=N)N12`, for which the cell number change was -38.9%. In addition, the AC50 under setting [1] is 23.1 µM [falling, single point]. Further, under setting [2], the AC50 was 29.1 µM [falling, partial curve, poor fit].
In the case of `O=C(c1ccccc1F)N(Cc1cccnc1)Cc1cc2cc3c(cc2[nH]c1=O)OCCO3`, the cell number change stood at 49.8%. Further, under setting [1], the AC50 was 0.651 µM [rising, partial curve, poor fit]. In addition, under setting [2], the half-maximal activity concentration (AC50) was 18.4 µM [rising, single point].
For `O=C(NCc1ccccn1)Nc1ccccc1C(F)(F)F`, the cell number change was -11.9%. For the same compound, the AC50 under setting [1] is 0.58 µM [falling, partial curve, poor fit].
`CCOC(=O)C1CCN(CC(=O)Nc2cc(S(=O)(=O)N3CCOCC3)ccc2C)CC1`: the cell number change turned out to be 67.6%. Also, under setting [1], the AC50 was 4.11 µM [rising, single point].
With `COc1ccc(CCNC(=O)c2c(C)nn(-c3ccccc3)c2Cl)cc1OC`, the cell number change was determined as 4.78%. Also, the AC50 under setting [2] was 6.51 µM [rising, single point].
For the compound `O=C(CSc1nnc(-c2ccncc2)o1)c1cccc([N+](=O)[O-])c1`, the cell number change was 144%. Also, under setting [2], the AC50 is 23.1 µM [rising, single point].
Take `O=C(Nc1ncnc2sc3c(c12)CCCC3)c1ccncc1`: the cell number change turned out to be 58.4%. Further, the AC50 under setting [1] is 29.1 µM [rising, single point]. For the same compound, the AC50 under setting [2] is 29.1 µM [rising, single point].
Consider `COc1ccccc1NC(=S)N1CCN(c2ccccc2F)CC1`, for which the cell number change was found to be 10.9%. Further, the AC50 under setting [2] was 0.116 µM [rising, full curve, poor fit].
`Cc1ccccc1Cn1c(=N)n(CC(=O)c2ccc([N+](=O)[O-])cc2)c2ccccc21`: the cell number change was -12.2%. In addition, the AC50 under setting [1] is 0.461 µM [falling, single point]. Also, the AC50 under setting [2] was 6.51 µM [falling, single point].
With `Cn1c(SCC(=O)Nc2ccc(NC(=O)c3ccccc3F)cc2)nnc1-c1ccncc1`, the cell number change came out at 19.2%.
Regarding `O=[N+]([O-])c1cc(S(=O)(=O)N2CCCC2)ccc1O`, the cell number change came to 101%. For the same compound, the AC50 under setting [1] is 2.59 µM [rising, full curve].
In the case of `COc1cccc(OC)c1C(=O)N1CCN(c2ccccn2)CC1`, the cell number change amounted to 16%. In addition, the AC50 under setting [1] was 3.66 µM [rising, single point]. Besides, the AC50 under setting [2] was 5.17 µM [rising, single point].
Turning to `O=C(Nc1ccc(NC(=S)NC(=O)c2cccs2)cc1)c1ccco1`, the cell number change was -35.6%. The half-maximal activity concentration (AC50) under setting [1] is 29.1 µM [falling, single point]. For the same compound, the AC50 under setting [2] is 29.1 µM [falling, single point].
For the compound `O=c1[nH]cnc2c1nc(SCc1ccccc1)n2C1OC(CO)C(O)C1O` (stereo not drawn), the cell number change was found to be 0.553%. In addition, the AC50 under setting [2] is 18.4 µM [falling, partial curve].
Regarding `CC1CN(C(=O)c2cc(S(=O)(=O)N3CCCC3)c(Cl)cc2Cl)CC(C)O1` (stereo not drawn), the cell number change came to 17.7%. Also, the AC50 under setting [2] was 0.146 µM [falling, full curve].
For the compound `CCC(Sc1nc(N)c(NC(=O)c2ccco2)c(=O)[nH]1)C(=O)O` (stereo not drawn), the AC50 under setting [2] is 20.6 µM [rising, partial curve].
`COc1ccccc1Oc1ccc2c(c1)C(=O)N(c1ccc(O)cc1)C2=O`: the cell number change was -10.6%. The AC50 under setting [2] is 29.1 µM [falling, single point].
Consider `CCN(CC)S(=O)(=O)c1ccc(N2CCN(S(=O)(=O)c3ccccc3C#N)CC2)nc1`, for which the AC50 under setting [1] is 2.59 µM [rising, single point].
Consider `CCN(C(=O)c1cc2c(=O)[nH]c3ccc(C)cc3c2s1)c1ccc(F)cc1`, for which the cell number change is -5.27%. The AC50 under setting [2] was 29.1 µM [falling, single point].
As to `Cc1ccc2c(c1)C(CCN)C(=O)N2Cc1ccccc1` (stereo not drawn), the cell number change turned out to be 48.8%. Besides, under setting [1], the AC50 is 25.9 µM [rising, single point]. For the same compound, the AC50 under setting [2] is 0.366 µM [falling, full curve, poor fit].
For the compound `O=C1CC(c2ccc(Cl)cc2)CC(=O)C1CS(=O)(=O)c1ccccc1` (stereo not drawn), the cell number change turned out to be 30.7%. Moreover, the AC50 under setting [1] is 6.51 µM [rising, full curve, poor fit]. Also, under setting [2], the AC50 is 25.9 µM [rising, single point].
Regarding `C=CCSc1nc2ccsc2c(=O)n1-c1cccnc1`, the cell number change was found to be 41%. For the same compound, the AC50 under setting [1] was 32.6 µM [rising, single point].
For the compound `O=C(N/N=C/c1cccc(C(F)(F)F)c1)c1ccc(O)cc1`, the AC50 under setting [2] is 29.1 µM [rising, single point].
As for `CCc1ccc(Nc2nc(N3CCOCC3)nc(N3CCOCC3)n2)cc1`, the cell number change is -5.6%.
Consider `Cc1cccc(N(Cc2ccc(Cl)cc2)S(C)(=O)=O)c1`, for which the cell number change was -53.2%. For the same compound, the AC50 under setting [1] was 0.00411 µM [falling, full curve, poor fit].
On to `O=[N+]([O-])c1cc(S(=O)(=O)C(F)(F)F)ccc1Sc1nc2ccccc2[nH]1`, for which the AC50 under setting [2] was 29.1 µM [falling, single point].
Consider `COc1cc(NC(=O)COC(=O)CC(C)(C)C)c(C)cc1[N+](=O)[O-]`, for which the cell number change was -6.41%. In addition, under setting [1], the AC50 is 0.13 µM [rising, full curve]. For the same compound, the AC50 under setting [2] was 0.206 µM [rising, full curve].
On to `Cc1nn(Cc2ccccc2)c(C)c1NC(=O)c1cc2nc(-c3ccco3)cc(C(F)(F)F)n2n1`, for which the cell number change was -32.6%. For the same compound, the AC50 under setting [2] is 5.17 µM [rising, single point].
As for `CCCCCOc1ccc(C2C(C(=O)c3ccc(C)o3)=C(O)C(=O)N2c2cc(C)on2)cc1` (stereo not drawn), the cell number change worked out at 11.1%.
Consider `N#Cc1c(SCC(=O)O)nc(-c2ccccc2)c2c1CCCC2`, for which the cell number change was -33.2%. Further, the AC50 under setting [1] is 6.51 µM [falling, full curve, poor fit].
`COc1ccc(CNC(=O)c2sc(=S)n(-c3ccc(OC)cc3)c2N)cc1`: the AC50 under setting [1] is 0.82 µM [rising, partial curve] and the AC50 under setting [2] is 0.82 µM [rising, partial curve].
On to `Cc1ccc(NS(=O)(=O)c2ccc(-c3cnc(C4CC4)o3)cc2)cc1`, for which the cell number change was -57.6%. The AC50 under setting [1] is 29.1 µM [falling, single point]. Further, the AC50 under setting [2] is 29.1 µM [falling, single point].
With `O=C(O)CCNc1cc(N2CCN(C(=O)c3ccco3)CC2)c2noc3c2c1C(=O)c1ccccc1-3`, the cell number change was -37.2%. In addition, the AC50 under setting [1] is 32.6 µM [falling, single point].
For `CC(NC(=O)c1ccc(CS(C)(=O)=O)cc1)c1ccc(-c2ccccc2)cc1` (stereo not drawn), the cell number change stood at 237%. Moreover, under setting [1], the AC50 was 20.6 µM [rising, partial curve]. Moreover, the AC50 under setting [2] is 5.62 µM [rising, single point].
Take `COC(=O)c1sc(NC(=O)COc2cccnc2[N+](=O)[O-])c(C(=O)OC)c1C`: the cell number change is -20.5%. Moreover, the AC50 under setting [2] is 29.1 µM [falling, single point].
On to `c1ccc(CSc2nnc(-c3ccco3)n2Cc2ccccc2)cc1`, for which the cell number change is -4.7%. In addition, the AC50 under setting [1] is 0.651 µM [falling, single point].
Turning to `Cc1cc(C(C)(C)C)cc(C)c1S(=O)(=O)N1CC(=O)Nc2ccccc21`, the cell number change was -16.8%.
On to `Cc1ccc(S(=O)(=O)NCC(=O)OCc2csc(-c3ccccc3)n2)cc1`, for which the cell number change came to 33.2%. Further, the AC50 under setting [1] was 18.4 µM [rising, single point]. Also, under setting [2], the AC50 was 0.0731 µM [falling, full curve, poor fit].
Turning to `Nc1c(N(CCC2=CCCCC2)C(=O)Cc2ccccc2F)c(=O)[nH]c(=O)n1Cc1ccccc1`, the cell number change was -10.7%. Besides, the AC50 under setting [2] is 0.411 µM [falling, partial curve, poor fit].
For the compound `C/C=C/c1ccc(OCC(=O)Nc2cc(S(=O)(=O)N3CCOCC3)ccc2N2CCCC2)c(OC)c1`, the cell number change is -24.7%. For the same compound, under setting [2], the AC50 was 4.11 µM [falling, partial curve, poor fit].
